Article PMC8938449
These are yes or no findings as the source states them, for the method shown. Binding seen in cells or lysates may run through a third protein. Binding can be weak; no strength is given. Values belong to the binder of their own block, whether it stands above or below them.

How the values were obtained:
Flag-Par-1 (Bombyx) [1] = assay: co-IP; Flag-Par-1 in BmN4 cytoplasmic lysates without mitochondrial materials; blot for Siwi; Flag-LacZ as negative control
Flag-Par-1 (Bombyx) [2] = assay: co-IP; immunoprecipitation and western blotting of WT Siwi or the Siwi 9RK mutant with Par-1 (Fig. 3f); bait and tags not stated

binding (Flag-Par-1 (Bombyx) [1]): binds
B1: Siwi, endogenous (protein, UniProt A8D8P8 1-899)
chain: MSEPRGRGRARGRAGRGGDGGGPAPRRPGEQAGPSQQSMPPGPRPQPPSGWGPQSSVPPVRAGVPTPTAQAGRASHRVTPTTHEHPGDIDVQQRMQKLELGPHSSGGGDASSVVGRGSRRGGGRVLPETISILRTRPEAVTSKKGTSGTPLDLLANYFTVETTPKWGLYQYHVDISPEEDSTGVRKALMRVHSKTLGGYLFDGTVLYTVNRLHPDPMELYSDRKTDNERMRILIKLTCEVSPGDYHYIQIFNIIIRKCFNLLKLQLMGRDYFDPEAKIDIPEFKLQIWPGYKTTINQYEDRLLLVTEIAHKVLRMDTVLQMLSEYAATKGNNYKKIFLEDVVGKIVMTDYNKRTYRVDDVAWNVSPKSTFKMRDENITYIEYYYKKYNLRIQDPGQPLLISRSKPREIRAGLPELIYLVPELCRQTGLSDEMRANFKLMRSLDVHTKIGPDKRIEKLNNFNRRFTSTPEVVEELATWSLKLSKELVKIKGRQLPPENIIQANNVKYPAGDTTEGWTRDMRSKHLLAIAQLNSWVVITPERQRRDTESFIDLIIKTGGGVGFRMRSPDLVVIRHDGPIEYANMCEEVIARKNPALILCVLARNYADRYEAIKKKCTVDRAVPTQVVCARNMSSKSAMSIATKVAIQINCKLGGSPWTVDIPLPSLMVVGYDVCHDTRSKEKSFGAFVATLDKQMTQYYSIVNAHTSGEELSSHMGFNIASAVKKFREKNGTYPARIFIYRDGVGDGQIPYVHSHEVAEIKKKLAEIYAGVEIKLAFIIVSKRINTRIFVQRGRSGENPRPGTVIDDVVTLPERYDFYLVSQNVREGTIAPTSYNVIEDTTGLNPDRIQRLTYKLTHLYFNCSSQVRVPSVCQYAHKLAFLAANSLHNQPHYSLNETLYFL

binding (Flag-Par-1 (Bombyx) [2]): binds
B2: WT Siwi, expressed in BmN4 cells (protein, UniProt A8D8P8 1-899)
chain: B1 chain
